From publication PMC9019091 come the findings set out here.

Sequences of proteins named here, by UniProt entry; tags and fusion partners are left off.
UniProt P78527: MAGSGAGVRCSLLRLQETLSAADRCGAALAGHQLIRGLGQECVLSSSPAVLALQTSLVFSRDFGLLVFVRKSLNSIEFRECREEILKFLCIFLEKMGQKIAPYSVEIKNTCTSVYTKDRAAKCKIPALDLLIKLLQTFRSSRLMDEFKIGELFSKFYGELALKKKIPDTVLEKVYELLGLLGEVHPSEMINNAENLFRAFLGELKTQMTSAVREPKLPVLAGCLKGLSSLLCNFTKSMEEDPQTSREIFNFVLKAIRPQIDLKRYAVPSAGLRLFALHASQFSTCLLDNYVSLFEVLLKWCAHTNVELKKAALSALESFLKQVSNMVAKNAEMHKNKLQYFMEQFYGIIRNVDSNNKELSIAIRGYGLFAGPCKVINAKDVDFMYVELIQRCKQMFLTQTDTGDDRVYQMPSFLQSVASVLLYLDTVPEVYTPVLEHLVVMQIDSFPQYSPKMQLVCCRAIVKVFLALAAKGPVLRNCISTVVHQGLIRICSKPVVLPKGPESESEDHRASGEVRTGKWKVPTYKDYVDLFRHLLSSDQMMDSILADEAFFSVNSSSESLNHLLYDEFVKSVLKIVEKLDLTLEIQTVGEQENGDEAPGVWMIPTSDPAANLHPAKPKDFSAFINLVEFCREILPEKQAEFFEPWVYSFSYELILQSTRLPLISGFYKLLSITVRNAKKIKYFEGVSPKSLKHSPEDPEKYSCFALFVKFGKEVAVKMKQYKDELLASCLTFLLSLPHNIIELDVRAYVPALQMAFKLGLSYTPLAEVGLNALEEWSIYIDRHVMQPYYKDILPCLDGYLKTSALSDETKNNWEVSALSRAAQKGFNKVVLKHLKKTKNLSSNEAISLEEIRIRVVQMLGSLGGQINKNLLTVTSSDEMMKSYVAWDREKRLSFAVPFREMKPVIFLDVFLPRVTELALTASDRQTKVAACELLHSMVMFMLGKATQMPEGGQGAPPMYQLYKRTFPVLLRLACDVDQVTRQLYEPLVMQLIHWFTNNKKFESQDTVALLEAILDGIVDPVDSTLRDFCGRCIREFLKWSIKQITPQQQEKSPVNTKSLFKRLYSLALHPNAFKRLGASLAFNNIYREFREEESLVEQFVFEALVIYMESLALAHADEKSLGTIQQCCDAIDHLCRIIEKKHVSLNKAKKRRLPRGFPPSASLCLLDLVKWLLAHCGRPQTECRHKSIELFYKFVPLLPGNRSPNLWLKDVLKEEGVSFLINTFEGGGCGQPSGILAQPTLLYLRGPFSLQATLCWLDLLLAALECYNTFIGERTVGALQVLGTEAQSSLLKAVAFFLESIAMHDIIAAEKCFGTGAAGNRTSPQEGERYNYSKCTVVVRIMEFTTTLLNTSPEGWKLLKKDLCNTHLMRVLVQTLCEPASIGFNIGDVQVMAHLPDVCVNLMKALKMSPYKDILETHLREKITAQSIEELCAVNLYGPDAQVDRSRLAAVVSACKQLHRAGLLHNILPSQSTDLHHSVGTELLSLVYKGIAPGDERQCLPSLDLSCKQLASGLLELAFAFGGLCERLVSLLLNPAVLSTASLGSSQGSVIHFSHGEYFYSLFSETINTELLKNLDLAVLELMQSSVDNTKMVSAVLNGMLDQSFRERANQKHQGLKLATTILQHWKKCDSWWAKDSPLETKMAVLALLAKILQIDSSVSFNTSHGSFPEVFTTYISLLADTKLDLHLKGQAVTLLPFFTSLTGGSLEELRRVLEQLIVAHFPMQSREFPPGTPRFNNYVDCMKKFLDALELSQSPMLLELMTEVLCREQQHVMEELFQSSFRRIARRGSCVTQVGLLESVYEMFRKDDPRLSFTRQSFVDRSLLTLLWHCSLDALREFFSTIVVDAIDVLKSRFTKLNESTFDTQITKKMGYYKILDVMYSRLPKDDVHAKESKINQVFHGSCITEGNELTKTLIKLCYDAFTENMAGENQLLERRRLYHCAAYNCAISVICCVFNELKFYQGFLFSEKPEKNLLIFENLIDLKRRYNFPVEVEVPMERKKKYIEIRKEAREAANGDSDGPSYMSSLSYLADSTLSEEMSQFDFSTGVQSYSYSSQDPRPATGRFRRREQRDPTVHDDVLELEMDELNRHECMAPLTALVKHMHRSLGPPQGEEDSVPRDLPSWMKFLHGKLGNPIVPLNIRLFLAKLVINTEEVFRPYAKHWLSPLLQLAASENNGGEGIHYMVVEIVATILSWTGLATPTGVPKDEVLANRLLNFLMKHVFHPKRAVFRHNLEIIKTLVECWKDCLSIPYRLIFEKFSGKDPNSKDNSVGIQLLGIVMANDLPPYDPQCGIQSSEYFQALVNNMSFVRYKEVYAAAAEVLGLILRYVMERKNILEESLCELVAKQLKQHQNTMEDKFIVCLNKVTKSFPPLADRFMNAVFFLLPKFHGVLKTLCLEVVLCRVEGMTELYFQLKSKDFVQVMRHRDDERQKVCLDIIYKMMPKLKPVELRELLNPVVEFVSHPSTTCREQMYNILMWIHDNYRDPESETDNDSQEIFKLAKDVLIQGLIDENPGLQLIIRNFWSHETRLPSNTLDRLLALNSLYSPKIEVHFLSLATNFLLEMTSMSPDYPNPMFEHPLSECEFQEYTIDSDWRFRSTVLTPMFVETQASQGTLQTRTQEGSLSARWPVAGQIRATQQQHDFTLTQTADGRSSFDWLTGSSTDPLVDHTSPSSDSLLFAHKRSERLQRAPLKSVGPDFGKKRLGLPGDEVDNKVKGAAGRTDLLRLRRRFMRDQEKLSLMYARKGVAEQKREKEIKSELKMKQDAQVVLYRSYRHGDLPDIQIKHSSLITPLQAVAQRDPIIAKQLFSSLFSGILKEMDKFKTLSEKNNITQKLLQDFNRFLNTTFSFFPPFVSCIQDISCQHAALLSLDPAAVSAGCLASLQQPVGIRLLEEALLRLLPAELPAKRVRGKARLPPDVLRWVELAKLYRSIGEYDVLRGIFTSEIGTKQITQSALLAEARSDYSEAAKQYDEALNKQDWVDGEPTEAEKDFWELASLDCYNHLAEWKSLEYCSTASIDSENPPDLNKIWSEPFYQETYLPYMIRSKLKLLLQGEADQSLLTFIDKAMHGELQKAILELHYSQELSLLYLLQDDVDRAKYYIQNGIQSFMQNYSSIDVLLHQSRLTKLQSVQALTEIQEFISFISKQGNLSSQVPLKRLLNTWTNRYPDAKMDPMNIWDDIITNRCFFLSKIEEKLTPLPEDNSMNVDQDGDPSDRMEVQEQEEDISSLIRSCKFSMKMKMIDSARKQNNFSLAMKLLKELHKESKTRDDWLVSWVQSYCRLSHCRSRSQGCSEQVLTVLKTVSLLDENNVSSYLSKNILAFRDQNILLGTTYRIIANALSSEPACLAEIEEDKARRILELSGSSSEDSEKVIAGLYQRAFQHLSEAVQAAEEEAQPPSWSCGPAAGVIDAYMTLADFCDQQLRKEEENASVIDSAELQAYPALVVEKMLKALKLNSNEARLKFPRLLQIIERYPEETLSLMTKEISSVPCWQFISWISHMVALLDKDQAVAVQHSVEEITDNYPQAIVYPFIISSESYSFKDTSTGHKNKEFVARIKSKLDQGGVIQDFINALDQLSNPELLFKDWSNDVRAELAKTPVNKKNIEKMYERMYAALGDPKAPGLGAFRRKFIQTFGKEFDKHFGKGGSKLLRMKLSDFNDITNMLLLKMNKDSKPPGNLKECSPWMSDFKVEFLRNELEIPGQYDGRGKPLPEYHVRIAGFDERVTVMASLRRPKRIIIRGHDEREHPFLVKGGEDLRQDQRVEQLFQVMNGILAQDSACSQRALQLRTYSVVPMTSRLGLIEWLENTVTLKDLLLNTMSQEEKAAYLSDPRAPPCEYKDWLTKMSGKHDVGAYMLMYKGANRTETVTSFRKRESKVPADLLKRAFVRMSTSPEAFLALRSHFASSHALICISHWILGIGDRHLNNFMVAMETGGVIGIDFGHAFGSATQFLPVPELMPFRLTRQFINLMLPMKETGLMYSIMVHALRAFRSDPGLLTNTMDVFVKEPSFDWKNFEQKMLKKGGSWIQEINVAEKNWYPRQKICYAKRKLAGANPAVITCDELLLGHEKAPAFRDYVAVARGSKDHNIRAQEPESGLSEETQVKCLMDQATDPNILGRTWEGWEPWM

These are yes or no findings as the source states them, for the method shown. Binding seen in cells or lysates may run through a third protein. Some binding calls cover weakened binding; strength is not graded here.

One experiment deals with T1, MARS, exogenous (UniProt P56192).
T1 sequence: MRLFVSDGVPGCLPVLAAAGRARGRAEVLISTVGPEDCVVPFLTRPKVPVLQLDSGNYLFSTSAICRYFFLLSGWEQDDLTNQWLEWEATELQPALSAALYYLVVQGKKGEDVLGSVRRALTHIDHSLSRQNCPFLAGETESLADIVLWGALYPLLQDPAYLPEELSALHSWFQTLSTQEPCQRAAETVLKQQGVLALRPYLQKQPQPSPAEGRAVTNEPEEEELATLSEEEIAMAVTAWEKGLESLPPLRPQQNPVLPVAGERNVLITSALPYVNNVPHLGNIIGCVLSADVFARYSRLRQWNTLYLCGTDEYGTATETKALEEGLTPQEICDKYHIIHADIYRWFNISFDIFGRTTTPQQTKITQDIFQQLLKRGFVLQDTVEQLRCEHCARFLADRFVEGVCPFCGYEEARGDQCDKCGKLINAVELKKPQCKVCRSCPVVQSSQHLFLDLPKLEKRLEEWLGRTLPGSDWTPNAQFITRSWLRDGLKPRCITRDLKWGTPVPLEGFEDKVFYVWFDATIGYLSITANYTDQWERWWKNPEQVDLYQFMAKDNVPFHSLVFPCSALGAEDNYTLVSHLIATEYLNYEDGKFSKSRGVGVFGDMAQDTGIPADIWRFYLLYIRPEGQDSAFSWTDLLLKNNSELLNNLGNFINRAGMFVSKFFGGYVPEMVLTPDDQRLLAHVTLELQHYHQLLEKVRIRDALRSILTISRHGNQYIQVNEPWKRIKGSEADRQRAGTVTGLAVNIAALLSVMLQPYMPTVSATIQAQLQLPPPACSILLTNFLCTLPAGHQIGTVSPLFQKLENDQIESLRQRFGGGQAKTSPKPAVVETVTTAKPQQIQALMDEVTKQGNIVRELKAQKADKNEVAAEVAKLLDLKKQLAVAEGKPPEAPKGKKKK
In words: co-IP; exogenous DNA-PKcs and exogenous MARS in ACHN and 769-P cells (Supplementary Fig. 9a).

Experiment [1] has as its target T2, methionyl-tRNA synthetase (MARS), endogenous (human (endogenous in 786-O)) (UniProt P56192).
T2 sequence: T1 sequence
In words: co-IP; endogenous DNA-PKcs and endogenous MARS in 786-O cells (Fig. 7d); n = 3 biological repeats.

For “DNA-PKcs, wild type, exogenous (pcDNA3.1-Flag) (from UniProt P78527 1-4128)”, the binding result in the experiment with MARS, exogenous is recorded as “binds”.

Turning to “DNA-dependent protein kinase catalytic subunit (DNA-PKcs), endogenous (from UniProt P78527 1-4128)”, the binding entry in experiment [1] is listed as “binds”.
